# Measurements as given in article PMC7006413.
# Amino acid sequences for entries named in this document (tags omitted).
# UniProt Q9NPI1: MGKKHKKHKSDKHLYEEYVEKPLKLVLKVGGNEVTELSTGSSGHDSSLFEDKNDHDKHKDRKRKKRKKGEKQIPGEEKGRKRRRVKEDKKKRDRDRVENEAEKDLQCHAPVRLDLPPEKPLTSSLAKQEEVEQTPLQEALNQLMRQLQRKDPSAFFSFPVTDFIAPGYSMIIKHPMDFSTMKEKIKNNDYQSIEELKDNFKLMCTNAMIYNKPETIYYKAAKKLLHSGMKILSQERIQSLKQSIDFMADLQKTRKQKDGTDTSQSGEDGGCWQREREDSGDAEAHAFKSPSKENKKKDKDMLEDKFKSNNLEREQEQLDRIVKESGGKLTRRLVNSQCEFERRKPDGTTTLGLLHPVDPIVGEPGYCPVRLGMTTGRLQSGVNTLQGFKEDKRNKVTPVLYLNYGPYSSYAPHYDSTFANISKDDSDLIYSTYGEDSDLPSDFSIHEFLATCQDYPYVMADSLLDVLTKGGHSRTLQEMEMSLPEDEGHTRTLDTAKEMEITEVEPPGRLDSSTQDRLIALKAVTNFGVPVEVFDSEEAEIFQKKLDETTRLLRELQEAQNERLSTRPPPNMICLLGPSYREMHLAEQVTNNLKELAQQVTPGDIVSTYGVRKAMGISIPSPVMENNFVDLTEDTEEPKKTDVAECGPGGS
# UniProt P67809: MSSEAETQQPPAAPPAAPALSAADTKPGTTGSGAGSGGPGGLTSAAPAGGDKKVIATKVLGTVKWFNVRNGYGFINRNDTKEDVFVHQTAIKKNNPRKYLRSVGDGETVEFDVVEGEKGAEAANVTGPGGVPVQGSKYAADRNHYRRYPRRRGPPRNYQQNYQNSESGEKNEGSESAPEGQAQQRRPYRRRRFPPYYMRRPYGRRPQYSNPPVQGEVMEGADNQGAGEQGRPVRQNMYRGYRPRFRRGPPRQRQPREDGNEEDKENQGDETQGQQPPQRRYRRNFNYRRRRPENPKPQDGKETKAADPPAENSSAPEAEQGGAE
# These are yes or no findings as the source states them, for the method shown. Binding seen in cells or lysates may run through a third protein. A yes stands for co-enrichment or nearness to the bait. Other partners may have been found.
# Target: flag-BRD7 (UniProt Q9NPI1)
# Assay: affinity purification with mass spectrometry; HEK293T transfected with pIRES2-EGFP-BRD7/3Flag for 48 h; extracts incubated overnight with Protein A/G beads carrying anti-flag or anti-IgG antibodies; 10% SDS-PAGE, Coomassie blue, in-gel trypsin digestion, nano-LC-MS/MS
substance,measurement,value
"Y-box binding protein-1 (YB1), endogenous (from UniProt P67809 1-324)",binding,binds
